Data reported in patent US8623832B2, “Peptide compositions that bind TLR-4” (The Board of Regents of the University of Oklahoma, priority 2011, dated 2014).
Some results were stated once for a whole list of compounds, not compound by compound.

Test system: KG-1-derived DCs
Experiment: Phagocytosis of pHrodo-labeled E. coli bioparticles by KG-1-derived DCs
Format: cell-based, human
Conditions: concentration-dependent, SP-A 0.2 and 2 μM, TLR4-MD2 0.06-0.6 μM, p<0.05
Source text: Phagocytosis assay: In this Example, pHrodo-conjugated, heat-killed E. coli K12 (encapsulated) bioparticles (Invitrogen-Molecular Probes, CA) were employed. The pHrodo-fluorescent label offers an advantage over other conventional methods, in that it fluoresces only in acidic conditions (i.e., after the bioparticles are taken inside the intracellular lysosomes) (Invitrogen-Molecular Probes, CA). To ensure that the fluorescence relates to phagocytosed pHrodo-conjugated E. coli bioparticles only, the phagocytosis reaction mix was imaged by confocal microscopy. […]
After confirming that the fluorescence is of phagocytosed bioparticles, comprehensive experiments were performed in presence and absence of effector molecules (SP-A and TLR4-MD2 proteins). […] The fluorescence readings were taken at 550 nm excitation and 600 nm emission wavelengths using SpectraMax M2 spectrofluorometer (Molecular Devices, CA).
The phagocytosis index was calculated by subtracting the average fluorescence intensity of the reaction with bioparticles alone from the control (basal without any effector molecules) and experimental wells. Finally, the percent effect was calculated using the following formula: % effect=(Net experimental phagocytosis/Net basal phagocytosis)×100%

TLR4-MD2: soluble mixture of recombinant human TLR4 extracellular domain and MD2 proteins (R&D Systems) [reference compound]
increase of phagocytic uptake of E. coli bioparticles: 1.5-2 fold
